Measurements reported in article PMC2478664.

By UniProt entry, the sequences of proteins in these tests, tags left out. Where a name states a change or a piece, a line headed by the entry shows the natural chain unless it says otherwise.
UniProt Q9C5U0: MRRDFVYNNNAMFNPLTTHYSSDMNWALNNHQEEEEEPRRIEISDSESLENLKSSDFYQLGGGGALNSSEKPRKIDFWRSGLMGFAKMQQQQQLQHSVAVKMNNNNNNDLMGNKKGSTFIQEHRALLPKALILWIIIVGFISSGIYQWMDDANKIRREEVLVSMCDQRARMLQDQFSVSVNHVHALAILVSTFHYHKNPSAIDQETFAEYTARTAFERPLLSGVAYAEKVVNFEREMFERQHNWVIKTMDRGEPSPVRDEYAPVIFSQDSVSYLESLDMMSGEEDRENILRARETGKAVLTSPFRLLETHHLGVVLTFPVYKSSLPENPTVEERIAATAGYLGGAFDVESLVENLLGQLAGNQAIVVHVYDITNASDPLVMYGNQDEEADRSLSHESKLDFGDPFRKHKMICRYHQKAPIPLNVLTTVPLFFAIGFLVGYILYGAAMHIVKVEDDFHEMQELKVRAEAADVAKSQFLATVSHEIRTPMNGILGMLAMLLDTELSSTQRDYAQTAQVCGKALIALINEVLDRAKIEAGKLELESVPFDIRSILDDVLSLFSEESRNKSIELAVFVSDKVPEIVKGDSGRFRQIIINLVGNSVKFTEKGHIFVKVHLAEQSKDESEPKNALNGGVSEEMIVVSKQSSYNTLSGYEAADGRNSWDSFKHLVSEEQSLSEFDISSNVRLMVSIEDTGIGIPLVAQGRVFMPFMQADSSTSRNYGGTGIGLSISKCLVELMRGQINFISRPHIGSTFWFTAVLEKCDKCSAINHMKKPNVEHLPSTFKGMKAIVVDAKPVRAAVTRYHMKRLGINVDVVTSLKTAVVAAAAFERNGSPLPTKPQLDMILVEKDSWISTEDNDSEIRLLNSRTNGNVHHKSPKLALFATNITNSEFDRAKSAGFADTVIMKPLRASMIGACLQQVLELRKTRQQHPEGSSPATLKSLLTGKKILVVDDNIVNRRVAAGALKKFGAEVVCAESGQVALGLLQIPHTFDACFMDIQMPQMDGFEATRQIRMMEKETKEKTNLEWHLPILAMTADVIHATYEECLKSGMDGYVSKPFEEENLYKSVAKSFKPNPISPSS

Target: T1, Arabidopsis response regulator 22 (ARR22), yeast two-hybrid fusion (Arabidopsis thaliana) (UniProt Q9M8Y4)
T1 sequence: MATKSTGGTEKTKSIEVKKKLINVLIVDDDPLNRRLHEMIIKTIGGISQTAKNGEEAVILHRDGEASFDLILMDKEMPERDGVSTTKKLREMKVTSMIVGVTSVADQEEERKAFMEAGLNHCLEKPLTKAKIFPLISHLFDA
Assay: two-hybrid; Matchmaker system, yeast strain PJ69-4A; BD-ARR22 bait (pGBKT7-DEST), AD preys (pGADT7-DEST); growth on interaction selective medium (CSM-L-, W-, Ade-) at 28 C and LacZ (beta-galactosidase) activity in extracts of 3 independent clones

In the case of “histidine kinase (HK) domain of the cytokinin receptor AHK4, AD fusion (from UniProt Q9C5U0) (domain or fragment)”, the binding is reported as “no binding”.

These are yes or no findings as the source states them, for the method shown. Where a sequence is shown, tags or fusion partners need not be part of it.
